PubChem BioAssay AID1259405 | NCATS – 2018
Test: 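Knock-downs that lift recombinant protein yield in hamster ovary cells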 (primary screen). System: Chinese hamster CHO-K1 ovary cells with stable secreted eGFP expression. Reagents: single siRNA against mouse genes, 0.8 pmol siRNA per well (2 µl of 400 nM stock). Duration: 3 days. Detection: 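Percent of the per-plate non-targeting control median for intracellular GFP per well by laser scanning cytometry and for cell viability by ATP luminescence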. Reading the numbers: GFP, % of control: higher = more GFP per well, higher productivity; viability (ATP), % of control: higher = more viable cells (more ATP). Active means: 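Called active when intracellular GFP, relative to negative control, is at or above 120%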.
Shown is a random part of about 50,000 reagents. Over the whole deposit, about 4,000 (8%) were called active. 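Mouse siRNA library applied to hamster cells; one well for each siRNA.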 Unmarked entries are inactive. Reagents against one gene are numbered here.

gene	siRNA no.	GFP, % of control	viability (ATP), % of control
Synrg (GeneID 217030)	1	153 (active)	85.2
Synrg (GeneID 217030)	2	75.6	101
Synrg (GeneID 217030)	3	81.6	89.4
Igfbp2 (GeneID 16008)	1	75	79.1
Igfbp2 (GeneID 16008)	2	66.7	37.1
Igfbp2 (GeneID 16008)	3	224 (active)	74.9
Dlx3 (GeneID 13393)	1	72.5	68.8
Dlx3 (GeneID 13393)	2	122 (active)	117
Dlx3 (GeneID 13393)	3	60	34.8
Mrgprb5 (GeneID 404239)	1	45.4	55.1
Mrgprb5 (GeneID 404239)	2	75.2	72.6
Mrgprb5 (GeneID 404239)	3	69.8	82.9
Tnfaip2 (GeneID 21928)	1	87.3	104
Tnfaip2 (GeneID 21928)	2	107	108
Tnfaip2 (GeneID 21928)	3	181 (active)	113
Peli2 (GeneID 93834)	1	71.6	55.9
Peli2 (GeneID 93834)	2	89.6	60.4
Peli2 (GeneID 93834)	3	52.4	62.4
Cnn1 (GeneID 12797)	1	138 (active)	117
Cnn1 (GeneID 12797)	2	88.9	69.4
Cnn1 (GeneID 12797)	3	84.7	75.3
D630028G08Rik (GeneID 320379)	1	85.5	92.7
D630028G08Rik (GeneID 320379)	2	84.2	50
D630028G08Rik (GeneID 320379)	3	87.4	75.9
Cox17 (GeneID 12856)	1	124 (active)	99.1
Cox17 (GeneID 12856)	2	117	45.5
Cox17 (GeneID 12856)	3	65.2	78
Iigp1 (GeneID 60440)	1	91.1	99.4
Iigp1 (GeneID 60440)	2	55.7	69.6
Iigp1 (GeneID 60440)	3	72.7	92.9
Zcchc7 (GeneID 319885)	1	92.8	85.6
Zcchc7 (GeneID 319885)	2	80.6	34.1
Zcchc7 (GeneID 319885)	3	55.7	58.4
Zcchc7 (GeneID 319885)	4	72.6	64.3
Zcchc7 (GeneID 319885)	5	112	67.1
Zcchc7 (GeneID 319885)	6	74.1	101
Fbxo7 (GeneID 69754)	1	74.1	72.4
Fbxo7 (GeneID 69754)	2	72.4	86.7
Fbxo7 (GeneID 69754)	3	61.3	36.8
Ttl (GeneID 69737)	1	41.1	29.5
Ttl (GeneID 69737)	2	87	86.1
U2af1l4 (GeneID 233073)	1	31.8	56.6
U2af1l4 (GeneID 233073)	2	43.7	66.9
U2af1l4 (GeneID 233073)	3	113	83.2
Sf3b6 (GeneID 66055)	1	119	116
Sf3b6 (GeneID 66055)	2	38.8	89.4
Sf3b6 (GeneID 66055)	3	77	42.9
Znhit3 (GeneID 448850)	1	209 (active)	73.1
Znhit3 (GeneID 448850)	2	102	69.4
Znhit3 (GeneID 448850)	3	64.7	92.8
Mbip (GeneID 217588)	1	66.3	52.9
Mbip (GeneID 217588)	2	52.7	27.8
Mbip (GeneID 217588)	3	98	90.5
Taar6 (GeneID 215855)	1	109	85
Taar6 (GeneID 215855)	2	80.8	74.4
Taar6 (GeneID 215855)	3	62.5	68.9
Dst (GeneID 13518)	1	31.5	61.1
Dst (GeneID 13518)	2	87.7	90.7
Dst (GeneID 13518)	3	52.4	62
Nfib (GeneID 18028)	1	104	103
Nfib (GeneID 18028)	2	80	77.5
Nfib (GeneID 18028)	3	79.6	92.3
Prmt1 (GeneID 15469)	1	84.3	54.1
Prmt1 (GeneID 15469)	2	153 (active)	142
Prmt1 (GeneID 15469)	3	88.9	86.8
Vax2 (GeneID 24113)	1	49.5	68.4
Vax2 (GeneID 24113)	2	46.4	60.5
Or1ab2 (GeneID 258335)	1	79.8	57.9
Or1ab2 (GeneID 258335)	2	126 (active)	75.2
Or1ab2 (GeneID 258335)	3	91.1	99.9

Copied from above, 5 entries:
gene	siRNA no.	GFP, % of control	viability (ATP), % of control
Nfib (GeneID 18028)	2	80	77.5
Nfib (GeneID 18028)	3	79.6	92.3
Prmt1 (GeneID 15469)	1	84.3	54.1
Prmt1 (GeneID 15469)	2	153 (active)	142
Prmt1 (GeneID 15469)	3	88.9	86.8

Continued.
gene	siRNA no.	GFP, % of control	viability (ATP), % of control
Aga (GeneID 11593)	1	116	123
Aga (GeneID 11593)	2	79.7	83.4
Aga (GeneID 11593)	3	242 (active)	176
Qsox2 (GeneID 227638)	1	84	72.9
Qsox2 (GeneID 227638)	2	93.2	76.3
Qsox2 (GeneID 227638)	3	98.2	68.2
Tbr1 (GeneID 21375)	1	52.2	64.2
Tbr1 (GeneID 21375)	2	71.5	55.1
Tbr1 (GeneID 21375)	3	58	65.1
Disc1 (GeneID 244667)	1	53.7	81.4
Disc1 (GeneID 244667)	2	11.9	58.2
Disc1 (GeneID 244667)	3	48.1	42.9
Fbxo9 (GeneID 71538)	1	94.5	67.9
Fbxo9 (GeneID 71538)	2	42.9	27.1
Fbxo9 (GeneID 71538)	3	65	71.9
Iws1 (GeneID 73473)	1	29.4	24.1
Iws1 (GeneID 73473)	2	103	137
Iws1 (GeneID 73473)	3	78.3	57.5
Mcam (GeneID 84004)	1	82.1	84.7
Mcam (GeneID 84004)	2	111	75.3
Atxn2l (GeneID 233871)	1	75.2	74.9
Atxn2l (GeneID 233871)	2	89.2	44.4
Atxn2l (GeneID 233871)	3	73.3	69.9
Nupr2 (GeneID 69034)	1	145 (active)	88.8
Nupr2 (GeneID 69034)	2	84.6	77.2
Nupr2 (GeneID 69034)	3	72.6	68.9
Gm4793 (GeneID 215714)	1	56.9	76.6
Gm4793 (GeneID 215714)	2	27.1	34.3
Gm4793 (GeneID 215714)	3	57.9	84.1
Vps25 (GeneID 28084)	1	79.6	69.2
Vps25 (GeneID 28084)	2	134 (active)	52
Vps25 (GeneID 28084)	3	101	124
Kank2 (GeneID 235041)	1	166 (active)	88
Kank2 (GeneID 235041)	2	65.8	57.7
Kank2 (GeneID 235041)	3	79.6	83
Tchhl1 (GeneID 71325)	1	196 (active)	80.3
Tchhl1 (GeneID 71325)	2	93.6	78.1
Tchhl1 (GeneID 71325)	3	52.1	53.5
